# Construct, isoform or probe ends are uncertain for at least one entry. The direction of at least one scale is not stated here.
# Molecular target: FMRP RNA-AE (KH1 GKKG / KH2 RNA-KO, KH1-2 di-domain) T236K,H237K,K299D,N300D,del331-396 (human (hFMRP)) (UniProt Q06787)
# Experiment: NMR titration
# Settings: relative to P1, Kd value only in figure; NMR titrations: 50 uM 15N-protein, 10 mM phosphate pH 6.9, 40 mM NaCl, 0.5 mM TCEP, protein:RNA 1:0 to 1:12; temperature not given; recombinant protein; residues 216-425; protein details: N-terminal 6xHis, cleaved with HRV 3C
sequence,measurement,value
UGGAC,binding signal (fold higher affinity than WT),40
